The target in this assay is T1, Flag-RecQL4 (full length) (human) (UniProt O94761).
T1 sequence: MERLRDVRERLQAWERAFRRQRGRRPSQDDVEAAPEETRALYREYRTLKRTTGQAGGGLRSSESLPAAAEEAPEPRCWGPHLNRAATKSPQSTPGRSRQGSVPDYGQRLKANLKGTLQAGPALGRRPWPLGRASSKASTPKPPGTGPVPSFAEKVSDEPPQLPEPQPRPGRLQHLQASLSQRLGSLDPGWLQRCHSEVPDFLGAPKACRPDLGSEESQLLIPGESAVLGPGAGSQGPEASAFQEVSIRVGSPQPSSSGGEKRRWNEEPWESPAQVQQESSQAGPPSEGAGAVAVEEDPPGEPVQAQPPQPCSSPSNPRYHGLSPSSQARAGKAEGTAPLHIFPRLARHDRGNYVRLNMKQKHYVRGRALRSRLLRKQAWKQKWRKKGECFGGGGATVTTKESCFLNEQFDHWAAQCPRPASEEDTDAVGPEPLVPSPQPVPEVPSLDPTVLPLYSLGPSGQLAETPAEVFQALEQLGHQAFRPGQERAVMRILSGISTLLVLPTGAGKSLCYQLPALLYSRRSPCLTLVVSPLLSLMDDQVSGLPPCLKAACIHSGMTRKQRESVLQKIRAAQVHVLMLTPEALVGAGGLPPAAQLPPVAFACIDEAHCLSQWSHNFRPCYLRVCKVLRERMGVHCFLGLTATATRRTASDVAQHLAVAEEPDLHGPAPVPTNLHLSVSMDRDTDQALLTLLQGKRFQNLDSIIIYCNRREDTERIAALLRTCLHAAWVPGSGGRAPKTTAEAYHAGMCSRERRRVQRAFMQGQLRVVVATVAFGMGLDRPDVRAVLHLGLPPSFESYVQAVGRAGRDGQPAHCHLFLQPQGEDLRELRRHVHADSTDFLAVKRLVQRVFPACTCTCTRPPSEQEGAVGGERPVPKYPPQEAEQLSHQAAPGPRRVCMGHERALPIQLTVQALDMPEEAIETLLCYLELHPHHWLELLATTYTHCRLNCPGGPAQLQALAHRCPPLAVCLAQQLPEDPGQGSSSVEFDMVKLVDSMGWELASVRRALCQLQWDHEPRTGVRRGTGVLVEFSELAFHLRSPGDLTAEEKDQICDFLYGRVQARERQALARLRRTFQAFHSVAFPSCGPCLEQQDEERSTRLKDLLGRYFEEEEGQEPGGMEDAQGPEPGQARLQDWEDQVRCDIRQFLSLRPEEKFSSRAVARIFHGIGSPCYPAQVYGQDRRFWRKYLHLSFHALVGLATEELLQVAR
Nature of the assay: co-IP; lysates of 10^6 transfected U2OS cells (Flag-tagged bait, endogenous prey); anti-Flag-M2 magnetic beads, 4°C, 2 h; lysis buffer 50 mM Tris-HCl pH 7.5, 150 mM NaCl, 1% NP-40, 5 mM EDTA, 5 mM EGTA; Western blot. In general terms: In western blotting, separated proteins are transferred to a membrane and probed.

Protein sequences, listed by entry. Tags and fused reporters are not part of them.
UniProt O15392: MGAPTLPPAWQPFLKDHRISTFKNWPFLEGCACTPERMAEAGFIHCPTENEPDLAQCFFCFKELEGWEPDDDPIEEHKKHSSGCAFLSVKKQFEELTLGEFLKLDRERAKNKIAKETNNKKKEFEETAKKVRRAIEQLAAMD

These are yes or no findings as the source states them, for the method shown. In cells and extracts the contact can be indirect. Some binding calls cover weakened binding; strength is not graded here. Tags and fused reporters may be left off the sequences shown.

Regarding “endogenous survivin (from UniProt O15392 1-142)”, the binding result is “binds”.

Source of the values: PMC3718744.
